The target in assay [1] is T1, BD-FUS3^N90 (FUS3 N-terminal region, first 90 amino acids including the B2 domain, fused to the LexA DNA-binding domain) (Arabidopsis thaliana) (UniProt Q9LW31).
T1 sequence: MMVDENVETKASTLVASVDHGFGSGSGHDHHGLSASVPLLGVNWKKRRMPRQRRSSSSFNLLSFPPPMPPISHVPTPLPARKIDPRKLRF
Put plainly: two-hybrid; LexA DB fusion of FUS3^N90 (pEG202) and AD fusions of AIP2 variants (pJG4-5) in S. cerevisiae EGY48; growth on -His/-Trp/-Leu/-Ura plates with 2% galactose and 1% raffinose (leucine reporter).

Assay [2] addresses nYFP–MYB49. Put plainly: split reporter; BiFC: nYFP and cYFP fusions transiently co-expressed in N. benthamiana leaves by agroinfiltration, confocal imaging after 48 h.

No constants are given. Whether binding was seen depends on the method and setting. For some assays here: A result given as binding can be weak or reduced; the word gives no strength. Sequences can lack the tags named with a protein. For some assays here: Binding seen in cells or lysates may run through a third protein.

With “AD-AIP2^C/S,E/G (RING-inactive AIP2 variant fused to an activation domain) (from UniProt Q8RXD3)”, the binding result in assay [1] is on record as “binds”.

B1: FLAG-AIP2-6×His (natural protein, Arabidopsis thaliana, UniProt Q8RXD3 1-310, looked up)
chain: MDASSSPSPSEESLKLELDDLQKQLNKKLRFEASVCSIHNLLRDHYSSSSPSLRKQFYIVVSRVATVLKTRYTATGFWVAGLSLFEEAERLVSDASEKKHLKSCVAQAKEQLSEVDNQPTESSQGYLFEGHLTVDREPPQPQWLVQQNLMSAFASIVGGESSNGPTENTIGETANLMQELINGLDMIIPDILDDGGPPRAPPASKEVVEKLPVIIFTEELLKKFGAEAECCICKENLVIGDKMQELPCKHTFHPPCLKPWLDEHNSCPICRHELPTDDQKYENWKEREKEAEEERKGAENAVRGGEYMYV
notes: tagged protein of ~40 kDa; also called AIP2-His; source: cloned into pET28, purified (Ni-NTA-agarose)
For the molecule B1, the binding entry in assay [2] is recorded as “no binding”.

The values are drawn from PMC5441903, “The E3 ligase ABI3-INTERACTING PROTEIN2 negatively regulates FUSCA3 and plays a role in cotyledon development in Arabidopsis thaliana” (Journal of Experimental Botany, 2017).
